{"source": "PubChem BioAssay AID504467", "about": "(National Center for Advancing Translational Sciences (NCATS), 2011)", "note": "In all, about 330,000 compounds went through this assay and about 7,700 (2.3%) were called active. The inconclusive results got no clear call from the source; some entries with a clear call stand among them for comparison. Calls come from the whole dose curve; as a rule, active = well fitted inhibition curve with a large enough effect; inconclusive = small, poorly fitted or top-dose-only effect, or effect the other way; inactive = flat fitted curve, though single readings scatter. Potencies of inconclusive entries are doubtful fits and often do not repeat. Potency is the fitted concentration of half-maximal effect.", "data": [{"assay": "qHTS screen for small molecules that inhibit ELG1-dependent DNA repair in human embryonic kidney (HEK293T) cells expressing luciferase-tagged ELG1; note: nearly all actives have a fitted effect of over 55% in size", "settings": "HEK293T ELG1-luciferase reporter, luminescence, 16 h, DNA damage induced by 5-fluorouridine; series mostly up to 46.1 µM", "summary_of_the_method": "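Quantitative HTS, concentration-response format. 2,000 cells/well co-treated with 5-fluorouridine and compound, 16 hr in 5% CO2 at 37 °C; ONE-Glo luminescence read after 30 min.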", "values": [{"smiles": "COc1ccc(N=Cc2cc(Cc3ccccc3Cl)cc([N+](=O)[O-])c2O)cc1OC", "Potency": "inconclusive: 0.651 µM [inhibitor, partial curve, poor fit]"}, {"smiles": "O=C(N/N=C/c1ccccc1)c1ccco1", "Potency": "inconclusive: 14.6 µM [activator, partial curve]"}, {"smiles": "CC(=O)NC(Cc1c[nH]c2ccccc12)C(=O)OCC(=O)Nc1cc(C)on1", "note": "(stereo not drawn)", "Potency": "inactive"}, {"smiles": "Cc1ccc(NC2=CC(=O)C(=O)c3ccccc32)cc1", "Potency": "inconclusive: 29.1 µM [inhibitor, single point]"}, {"smiles": "CCOc1ccc(C(=S)N2CCOCC2)cc1OCC", "Potency": "inconclusive: 16.4 µM [activator, partial curve, poor fit]"}, {"smiles": "CCn1ccc(C(=O)N2CCN(c3ncccn3)CC2)n1", "Potency": "inactive"}, {"smiles": "O=C(CSc1ncnc2scc(-c3ccc(F)cc3)c12)c1ccc2c(c1)OCCO2", "Potency": "inconclusive: 23.1 µM [inhibitor, single point]"}, {"smiles": "Cc1[nH]n2c(=O)cc(C(C)C)nc2c1-c1ccccc1", "Potency": "inconclusive: 23.1 µM [inhibitor, single point]"}, {"smiles": "CN(C(=O)CC1C(=O)NCCN1Cc1ccccc1F)C1CCOCC1", "note": "(stereo not drawn)", "Potency": "inactive"}, {"smiles": "CN(Cc1ccccc1)c1nc2c(c(=O)[nH]c(=O)n2C)n1CCCSc1ncccn1", "Potency": "inconclusive: 32.6 µM [inhibitor, single point]"}, {"smiles": "N/C(=N\\OC(=O)Cc1ccccc1[N+](=O)[O-])c1ccccn1", "Potency": "inconclusive: 18.3 µM [activator, partial curve]"}, {"smiles": "Cc1nn(Cc2ccc(Cl)cc2)c(C)c1NC(=O)c1cc(C(C)C)on1", "Potency": "inconclusive: 29.1 µM [inhibitor, single point]"}, {"smiles": "CCOC(=O)c1c(NC(=S)NCCc2ccccc2)sc2c1CC(C(C)C)OC2", "note": "(stereo not drawn)", "Potency": "inconclusive: 18.4 µM [inhibitor, partial curve, poor fit]"}, {"smiles": "CC(=O)c1ccc(NC(=O)CSc2nnc(C3CC3)n2C2CC2)cc1", "Potency": "inactive"}, {"smiles": "CCOc1ccc(C2Nc3ccc4ccccc4c3-c3c2c(=O)oc2ccccc32)cc1", "note": "(stereo not drawn)", "Potency": "inactive"}, {"smiles": "C[C@@H]1C(=O)O[C@H](C)[C@H]1C[C@@H](O)[C@](C)(O)C1CC[C@@]2(O)C3=CC(=O)[C@@H]4C[C@@H](O)[C@@H](O)C[C@]4(C)C3CC[C@]12C", "note": "(stereo partly drawn)", "Potency": "inconclusive: 16.4 µM [activator, partial curve]"}, {"smiles": "CCN(C(=O)COC(=O)c1cc(-c2ccccc2)nc2c1c(C)nn2-c1ccccc1)C1CCS(=O)(=O)C1", "note": "(stereo not drawn)", "Potency": "inconclusive: 16.4 µM [inhibitor, partial curve, poor fit]"}, {"smiles": "O=[N+]([O-])c1ccc(N2CCN(C(=S)NCc3ccc(Cl)cc3)CC2)cc1", "Potency": "active: 14.6 µM"}, {"smiles": "CCCn1c(NC(=O)c2ccc(F)cc2)nc2ccccc21", "Potency": "inactive"}, {"smiles": "Cc1ccc(C(=O)Nc2nc3ccccc3c(=O)s2)cc1", "Potency": "inconclusive: 0.891 µM [activator, full curve]"}, {"smiles": "O=S(=O)(c1ccc(SCc2ccccc2)nc1)N1CCCC1", "Potency": "inconclusive: 29.1 µM [activator, single point]"}, {"smiles": "CN(C)C1=NC[C@H](Cc2ccccc2)N1CCCC1CCCC1", "Potency": "inactive"}, {"smiles": "COc1ccc(-c2ccnc(SCC(=O)c3ccc(Cl)cc3)n2)cc1", "Potency": "inconclusive: 25.9 µM [inhibitor, partial curve]"}, {"smiles": "CS(=O)(=O)c1sc(C#N)c2c1C(=O)CC(c1ccccc1)C2", "note": "(stereo not drawn)", "Potency": "inconclusive: 29.1 µM [inhibitor, single point]"}, {"smiles": "COc1cccc(N(C(=O)c2ccco2)C(C(=O)NC2CCCC2)c2cccnc2)c1", "note": "(stereo not drawn)", "Potency": "inconclusive: 0.164 µM [inhibitor, full curve, poor fit]"}, {"smiles": "CC[C@]12c3[nH]c4ccc(Cl)cc4c3CCN1C(=O)[C@@H](CC(=O)NCc1cccc(C(F)(F)F)c1)C[C@@H]2C(=O)N1CCN(C(=O)C2CC2)CC1", "Potency": "inconclusive: 23.1 µM [inhibitor, single point]"}, {"smiles": "O=C(CNC(=O)Cc1ccccc1)NCC(=O)N1CCN(C(c2ccccc2)c2ccccc2)CC1", "Potency": "inactive"}, {"smiles": "CCCCn1ccnc1C(=O)c1cccc(S(=O)(=O)N2CC(C)CC(C)C2)c1", "note": "(stereo not drawn)", "Potency": "active: 20.6 µM"}, {"smiles": "Cc1cc(OCC(=O)N(Cc2ccccc2)C2CCS(=O)(=O)C2)ccc1Cl", "note": "(stereo not drawn)", "Potency": "inactive"}, {"smiles": "Cc1ccc(NC(=O)Nc2ccc3c(c2)OCO3)c(Br)c1", "Potency": "inconclusive: 9.2 µM [activator, partial curve]"}, {"smiles": "COc1cc(CCC(=O)N2CCN(S(=O)(=O)c3ccc(C)cc3)CC2)cc(OC)c1OC", "Potency": "inactive"}, {"smiles": "C=CCN1C(=O)S/C(=C\\c2ccc3c(c2)n(C)c(=O)n3C)C1=O", "Potency": "inconclusive: 7.31 µM [activator, partial curve]"}, {"smiles": "CC(C)Sc1cc(Cl)nc(NC(=O)Nc2ccccc2)n1", "Potency": "inconclusive: 18.3 µM [activator, single point]"}, {"smiles": "Clc1ccccc1/C=C/c1ccnc2ccccc12", "Potency": "inconclusive: 13 µM [activator, partial curve, poor fit]"}, {"smiles": "COc1cc(C(=O)NCCOC(=O)c2cccc(N(C)C)c2)cc(OC)c1OC", "Potency": "active: 11.6 µM"}, {"smiles": "O=C(NCC(c1ccco1)N1CCOCC1)c1c(F)cccc1F", "note": "(stereo not drawn)", "Potency": "inconclusive: 11.6 µM [activator, single point]"}, {"smiles": "Cn1c(SCC(=O)N2CCCCC2)nc2c(c1=O)SCC2", "Potency": "inactive"}, {"smiles": "O=c1oc(CCO)cc2ccc(Br)cc12", "Potency": "inconclusive: 29.1 µM [activator, partial curve, poor fit]"}, {"smiles": "COc1ccccc1C(=O)Nc1c(-c2ccccc2)nc2ccccn12", "Potency": "inactive"}, {"smiles": "COC(=O)c1ccc(CN2CCC(CO)(Cc3ccc(OC)cc3)CC2)cc1", "Potency": "inconclusive: 29.1 µM [inhibitor, single point]"}, {"smiles": "CN(CC(=O)N1CCN(c2ncccn2)CC1)S(=O)(=O)c1ccc(Cl)cc1", "Potency": "inconclusive: 0.651 µM [inhibitor, single point]"}, {"smiles": "Cc1ccc(OCC(=O)NC(=S)Nc2ccc(Br)c(C)n2)cc1", "Potency": "inconclusive: 25.9 µM [activator, partial curve, poor fit]"}, {"smiles": "COc1ccc(S(=O)(=O)N2CCCC(C(=O)NCc3ccco3)C2)cc1OC", "note": "(stereo not drawn)", "Potency": "inconclusive: 20.6 µM [inhibitor, single point]"}]}]}
